doi:10.1101/2020.08.12.247874
These are yes or no findings as the source states them, for the method shown. Some binding calls cover weakened binding; strength is not graded here.

Protein sequences, listed by entry. Tags and fused reporters are not part of them. Residues count along the entry.
UniProt O14492, residues 417-515: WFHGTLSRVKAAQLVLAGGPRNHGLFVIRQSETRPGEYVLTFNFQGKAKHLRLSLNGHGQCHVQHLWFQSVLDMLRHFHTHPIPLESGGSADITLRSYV

Biological target: phosphopeptide (F1163 – F1183, containing pY1173) derived from epidermal growth factor receptor (EGFR) (UniProt P00533)
Experiment: qYY2H

**Q.** “SH2 domains of the adapter protein APS (from UniProt O14492 417-515) (domain or fragment)” was tested. Which binding did it give?
**A.** binds
